Settings in all cases: stereoisomer not certain
Experiment [1] deals with T1, OR2B6 (Homo sapiens) (UniProt P58173).
T1 sequence (whole entry): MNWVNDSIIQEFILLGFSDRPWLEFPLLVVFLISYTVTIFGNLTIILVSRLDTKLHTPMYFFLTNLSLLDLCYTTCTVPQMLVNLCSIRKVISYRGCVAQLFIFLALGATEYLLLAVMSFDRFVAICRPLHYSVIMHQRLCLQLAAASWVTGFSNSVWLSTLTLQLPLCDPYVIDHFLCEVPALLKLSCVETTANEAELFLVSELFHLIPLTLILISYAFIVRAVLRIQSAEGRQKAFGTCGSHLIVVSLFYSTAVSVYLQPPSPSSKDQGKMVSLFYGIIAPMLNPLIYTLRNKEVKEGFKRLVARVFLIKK
The essentials:
(§1)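 Assay methods differ from source to source, frequently being transient luciferase assays in mammalian cell lines. For each receptor–molecule pair, the label responsive (active) applies when the original authors judged the measured signal statistically different from baseline, and non-responsive (inactive) applies otherwise.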

Chains of the proteins cited; added tags and fusions are not shown. A line that says so, or that is headed by a name, gives the form on record, which may keep a tag or linker.
OR2C1, as listed by the source: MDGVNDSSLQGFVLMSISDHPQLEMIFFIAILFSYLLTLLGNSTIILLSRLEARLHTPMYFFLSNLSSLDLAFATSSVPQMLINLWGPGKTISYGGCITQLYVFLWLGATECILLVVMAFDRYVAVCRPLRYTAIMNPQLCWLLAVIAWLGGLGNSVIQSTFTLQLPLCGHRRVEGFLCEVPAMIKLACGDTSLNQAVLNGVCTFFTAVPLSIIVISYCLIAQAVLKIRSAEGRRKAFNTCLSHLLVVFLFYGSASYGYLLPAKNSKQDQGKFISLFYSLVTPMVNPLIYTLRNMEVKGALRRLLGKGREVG

Experiment [2] relates to T2, OR2B8.
T2 sequence (whole entry): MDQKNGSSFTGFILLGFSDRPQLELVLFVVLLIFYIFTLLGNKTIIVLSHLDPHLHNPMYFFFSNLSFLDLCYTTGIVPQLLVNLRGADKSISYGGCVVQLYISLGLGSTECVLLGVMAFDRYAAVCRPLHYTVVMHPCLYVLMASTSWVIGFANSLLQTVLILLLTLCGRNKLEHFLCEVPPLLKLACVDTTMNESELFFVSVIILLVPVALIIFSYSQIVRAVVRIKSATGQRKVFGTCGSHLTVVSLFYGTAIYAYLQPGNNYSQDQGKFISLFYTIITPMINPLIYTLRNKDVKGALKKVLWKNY
The method, boiled down:
as §1

Experiment [3] deals with T3, OR2C1.
T3 sequence (whole entry): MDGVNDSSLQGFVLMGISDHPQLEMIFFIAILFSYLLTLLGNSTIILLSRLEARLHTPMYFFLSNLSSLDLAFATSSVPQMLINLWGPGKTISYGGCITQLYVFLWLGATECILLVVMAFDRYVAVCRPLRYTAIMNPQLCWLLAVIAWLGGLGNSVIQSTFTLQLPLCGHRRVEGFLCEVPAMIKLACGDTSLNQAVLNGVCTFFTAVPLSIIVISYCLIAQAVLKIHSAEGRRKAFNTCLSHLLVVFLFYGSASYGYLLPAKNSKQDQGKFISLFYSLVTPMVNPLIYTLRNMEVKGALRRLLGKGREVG
The essentials:
as §1

The subject of experiment [4] is T4, OR2C1.
T4 sequence (whole entry): T3 sequence (whole entry) with H229R
The method, boiled down: as §1
The source holds these as a separate data set.

The subject of experiment [5] is T5, OR2C1.
T5 sequence (whole entry): T3 sequence (whole entry) with P58S, H229R
The method, boiled down: as §1
This is another data set of the same source.

The subject of experiment [6] is T6, OR2C1.
T6 sequence (whole entry): T3 sequence (whole entry) with G16S
The essentials: as §1
The source holds these as a separate data set.

Experiment [7] concerns T7, OR2C1.
T7 sequence (whole entry): T3 sequence (whole entry) with G16S, H229R
The method, boiled down:
as §1
The source holds these as a separate data set.

The target of experiment [8] is T8, OR2C1 (Homo sapiens) (UniProt O95371).
T8 sequence (whole entry): T3 sequence (whole entry) with W149C, H229R
The essentials: as §1

Where a chain is given by its changes, count along the chain named. The list shows a part of the results, in another mix than the full data. The calls were merged from several studies; some rest on single wells. This is one part of the list.

Regarding `CCCCO`, the “odorant receptor agonist call” value in experiment [1], in experiment [2], in experiment [3], in experiment [4], in experiment [5] and in experiment [6] was “inactive” throughout. Further, the “odorant receptor agonist call” value in experiment [7] is “inactive”.

On to `C=CCc1ccc(OC(C)=O)c(OC)c1`, for which the “odorant receptor agonist call” value in experiment [1], in experiment [2], in experiment [3], in experiment [4], in experiment [5] and in experiment [6] was “inactive” in each case. The “odorant receptor agonist call” value in experiment [7] was “inactive”.

Regarding `CC(C)CCC(=O)O`, the “odorant receptor agonist call” value in experiment [1], in experiment [2], in experiment [3], in experiment [4], in experiment [6] and in experiment [7] was “inactive” in each case. Moreover, in experiment [5], the “odorant receptor agonist call” value was “active”.

Regarding `CCCCCCCC=O`, the “odorant receptor agonist call” value in experiment [1], in experiment [2], in experiment [8], in experiment [3], in experiment [4] and in experiment [5] was “inactive” in each case. The “odorant receptor agonist call” value in experiment [6] and in experiment [7] was “inactive” throughout.

`CCCCCCCCCC=O`: the “odorant receptor agonist call” value in experiment [1], in experiment [2], in experiment [8], in experiment [3], in experiment [4] and in experiment [5] was “inactive” throughout. Moreover, the “odorant receptor agonist call” value in experiment [6] and in experiment [7] was “inactive” in each case.

Consider `CCCCCCCOC(C)=O`, for which the “odorant receptor agonist call” value in experiment [1], in experiment [2], in experiment [3], in experiment [4], in experiment [5] and in experiment [6] was “inactive” in each case. In experiment [7], the “odorant receptor agonist call” value was “inactive”.

Take `C=CCSCC=C`: the “odorant receptor agonist call” value in experiment [1], in experiment [2], in experiment [3], in experiment [4], in experiment [5] and in experiment [6] was “inactive” each time. Moreover, in experiment [7], the “odorant receptor agonist call” value was “inactive”.

In the case of `CC(C)(C)c1ccc(CCC=O)cc1`, the “odorant receptor agonist call” value in experiment [1], in experiment [2], in experiment [3], in experiment [4], in experiment [5] and in experiment [6] was “inactive” throughout. In addition, the “odorant receptor agonist call” value in experiment [7] is “inactive”.

In the case of `CC(=O)OCC=C(C)CCC=C(C)C`, the “odorant receptor agonist call” value in experiment [1], in experiment [2], in experiment [3], in experiment [4], in experiment [5] and in experiment [6] was “inactive” each time. Moreover, the “odorant receptor agonist call” value in experiment [7] is “inactive”.

As for `CCCCCC(=O)O`, the “odorant receptor agonist call” value in experiment [1], in experiment [2], in experiment [8], in experiment [3], in experiment [4] and in experiment [5] was “inactive” throughout. Moreover, the “odorant receptor agonist call” value in experiment [6] and in experiment [7] was “inactive” in each case.

With `O=C1CCCCC1`, the “odorant receptor agonist call” value in experiment [1], in experiment [2], in experiment [8], in experiment [3], in experiment [4] and in experiment [5] was “inactive” in each case. For the same compound, the “odorant receptor agonist call” value in experiment [6] and in experiment [7] was “inactive” each time.

`CC1COCc2cc3c(cc21)C(C)(C)C(C)C3(C)C` (centres undefined): the “odorant receptor agonist call” value in experiment [1], in experiment [3], in experiment [5], in experiment [6] and in experiment [7] was “active” each time. Besides, the “odorant receptor agonist call” value in experiment [2] and in experiment [4] was “inactive” throughout.

For the compound `COc1cc(C)ccc1O`, the “odorant receptor agonist call” value in experiment [1], in experiment [2], in experiment [3], in experiment [4] and in experiment [7] was “inactive” throughout. Also, the “odorant receptor agonist call” value in experiment [5] and in experiment [6] was “active” each time.

Consider `CC12CCC(CC1)C(C)(C)O2`, for which the “odorant receptor agonist call” value in experiment [1], in experiment [2], in experiment [3], in experiment [4], in experiment [5] and in experiment [6] was “inactive” in each case. For the same compound, the “odorant receptor agonist call” value in experiment [7] is “inactive”.

As to `CCC1(O)C2(C)CCC(C2)C1(C)C` (centres undefined), the “odorant receptor agonist call” value in experiment [1], in experiment [2], in experiment [3], in experiment [4], in experiment [5] and in experiment [6] was “inactive” in each case. Further, in experiment [7], the “odorant receptor agonist call” value is “inactive”.

Take `CC(C)C(=O)O`: the “odorant receptor agonist call” value in experiment [1], in experiment [2], in experiment [3], in experiment [4], in experiment [5] and in experiment [6] was “inactive” throughout. Also, the “odorant receptor agonist call” value in experiment [7] is “inactive”.

For `CC(=O)c1ccccc1`, the “odorant receptor agonist call” value in experiment [1], in experiment [2], in experiment [8], in experiment [3], in experiment [5] and in experiment [6] was “inactive” each time. Moreover, the “odorant receptor agonist call” value in experiment [7] was “inactive”. The “odorant receptor agonist call” value in experiment [4] is “active”.

Take `CC(=O)OC1CC2CCC1(C)C2(C)C` (centres undefined): the “odorant receptor agonist call” value in experiment [1], in experiment [2], in experiment [3], in experiment [4], in experiment [5] and in experiment [6] was “inactive” in each case. Besides, the “odorant receptor agonist call” value in experiment [7] was “inactive”.

With `CCCCCC(C)=O`, the “odorant receptor agonist call” value in experiment [1], in experiment [2], in experiment [8], in experiment [3], in experiment [5] and in experiment [6] was “inactive” throughout. Besides, in experiment [7], the “odorant receptor agonist call” value was “inactive”. The “odorant receptor agonist call” value in experiment [4] is “active”.

For `CCCCCCCC=CC=O`, the “odorant receptor agonist call” value in experiment [1], in experiment [2], in experiment [3], in experiment [4], in experiment [5] and in experiment [6] was “inactive” in each case. Moreover, in experiment [7], the “odorant receptor agonist call” value is “active”.

With `CC1CCC(C(C)C)C(O)C1` (centres undefined), the “odorant receptor agonist call” value in experiment [1], in experiment [2], in experiment [3], in experiment [6] and in experiment [7] was “inactive” throughout. Besides, the “odorant receptor agonist call” value in experiment [4] and in experiment [5] was “active” throughout.

For `CCCCCCCCCCC=O`, the “odorant receptor agonist call” value in experiment [1], in experiment [2], in experiment [3], in experiment [4], in experiment [5] and in experiment [6] was “inactive” in each case. In experiment [7], the “odorant receptor agonist call” value is “inactive”.

For the compound `O=C1CCCCCCCCCCCC(=O)OCCO1`, the “odorant receptor agonist call” value in experiment [1], in experiment [2], in experiment [3], in experiment [4], in experiment [5] and in experiment [6] was “inactive” each time. In addition, in experiment [7], the “odorant receptor agonist call” value was “inactive”.

As to `C=CCc1ccc(OC)c(OC)c1`, the “odorant receptor agonist call” value in experiment [1], in experiment [2], in experiment [3], in experiment [5], in experiment [6] and in experiment [7] was “inactive” in each case. Further, the “odorant receptor agonist call” value in experiment [4] was “active”.

Values taken from the M2OR odorant receptor database.
